## Screening data, single-dose tests

The values are deposited in ChEMBL (CHEMBL3988442, “University of Dundee, Small-Polar-MMV Screening Library” (2021)).

The filed quantity is “Percent Effect” (%). The record does not define 0% and 100%; most values in the screen are far below 50% and negative numbers occur (in some assays of this library far below -100). Compounds were drawn at random from those tested, without regard to their results.

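Whole-parasite assay of Trypanosoma brucei over 72 hours; the read-out is not stated. Compounds at 30 µM. Direction is inferred from retests: higher values go with stronger inhibition. Values scatter widely below zero; nearly all retest evidence comes from the higher of the two concentrations used. About 64,000 compounds were tested under these conditions; 1.5% (about 940) showed 50% or more at least once.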

compound: CCCc1nn(C2CCN(C(C)C)C2=O)c(=O)o1 (stereo unspecified)
percent effect: -35.73

compound: Cc1ccc(C#N)c(N2CC(C)(C)[C@@](C)(O)C2)n1
percent effect: -9.969

compound: O=S(=O)(Cc1cccc(F)c1)NCC(O)Cc1ccccc1 (stereo unspecified)
percent effect: 8.506

compound: N#Cc1nc(COc2ccc3c(c2)OCO3)oc1NC1CCCCC1
percent effect: -26.43

compound: Cc1ccccc1CCCN(Cc1ccccn1)S(C)(=O)=O
percent effect: -0.6294

compound: COCCNC(=O)N1CCCCC1CNC(=O)Nc1ccccc1 (stereo unspecified)
percent effect: -12.07

compound: COc1ccnc(CN2CC(=O)N(c3ccc(C)cc3)CC2C)c1OC (stereo unspecified)
percent effect: -29.74

compound: CCCc1cc(C(=O)N2Cc3ccccc3C2)[nH]n1
percent effect: -4.011

compound: CCN1CCC2(COCc3c(C)nc(N(C)C)nc32)C1 (stereo unspecified)
percent effect: 4.183

compound: [H][C@]12C[C@H](NC(=O)c3ccn(C)n3)[C@@]1([H])CN(S(=O)(=O)c1ccc(C)cc1)C2
percent effect: -1.135

compound: CN1CCN(C(=O)c2ccc(=O)n(C)c2)c2ccccc21
percent effect: 24.97

compound: [H][C@@]12COC[C@@H](CC(=O)N3CCN(C)CC3)[C@]1([H])CN(c1ccncn1)C2
percent effect: -157.7

compound: CC(NC(=O)Nc1ccccc1CN1CCOCC1)c1nccs1 (stereo unspecified)
percent effect: -18.16

compound: CC(C)C(=O)Nc1ccc(Oc2ccc3c(c2)OCO3)nc1
percent effect: -14.33

compound: COCCn1ccc2c(NC(=O)C(C)C)cccc21
percent effect: -7.237

compound: Cc1cccc(-c2noc(C)c2C(=O)NC2CCCOC2)c1.O=C(O)CC(O)(CC(=O)O)C(=O)O (stereo unspecified)
percent effect: -17.99

compound: O=C(CC1CCCO1)NCCCC(=O)Nc1ccc(Cl)cc1 (stereo unspecified)
percent effect: -40.08

compound: CN(C)C(=O)CCS(=O)(=O)Cc1ccn(-c2cccc(F)c2)n1
percent effect: -12.59

compound: O=C(NCC1CC1)C1CSCN1S(=O)(=O)c1ccccc1 (stereo unspecified)
percent effect: -24.83

compound: O=C(Cn1ccc(C(=O)O)n1)Nc1c(Cl)cccc1Cl
percent effect: -23.53

compound: CC1c2ncc(CN3CCN(C)CC3)n2CCN1CC1CC1.O=C(O)C(F)(F)F.O=C(O)C(F)(F)F.O=C(O)C(F)(F)F (stereo unspecified)
percent effect: 28.37

compound: O=C(c1cc2ccccc2[nH]1)N1CCCCC1Cn1cccn1 (stereo unspecified)
percent effect: -8.769

compound: O=C(NCC1(CO)CC1)c1ccccc1Br
percent effect: -0.8844

compound: Cc1nn(C)c2nc(N(Cc3ccncc3)CC3CCCO3)sc12 (stereo unspecified)
percent effect: -13.59

compound: O=C(NCC1(O)CCSC1)c1cccc(-n2cccn2)c1 (stereo unspecified)
percent effect: -12.4

compound: Cc1ccc(NC2CCN(C(=O)CCCc3cccs3)CC2)nn1
percent effect: -17.96

compound: Cc1cnn(CC2CCCCN2C(=O)c2ccc3nncn3c2)c1 (stereo unspecified)
percent effect: -2.848

compound: COc1cc(CNCCC(N)=O)c2c(c1)CC(C)O2 (stereo unspecified)
percent effect: -53.14

compound: Cc1cnn(CCNCc2ccc(OCc3ccncc3)cc2)c1
percent effect: 49.08

compound: NC(=O)C1CCC(NC(=O)COc2ccc(Cl)c(Cl)c2)CC1 (stereo unspecified)
percent effect: 7.261

compound: Cc1cc(C2CCCN2C(=O)NCc2cccnc2OC(C)C)on1 (stereo unspecified)
percent effect: -15.09

compound: CC(C)c1n[nH]c(C(=O)Nc2ccnn2C(C)C)c1Br
percent effect: -7.131

compound: O=C(O)C(F)(F)F.[H][C@@]12CN(CC)CCO[C@]1([H])CN(C(=O)c1cocn1)C2
percent effect: -61.14

compound: CC(C)(C)NC(=O)c1cnc(C(C)(C)C)s1
percent effect: -40.09

compound: CC(CN1CCOCC1)n1cncc1-c1ccc2c(c1)CCCN2C.Cl (stereo unspecified)
percent effect: -15.95

compound: c1cc(-c2nnc([C@H]3CCN(C4CCCCC4)C3)o2)ccn1
percent effect: -10.98

compound: COc1ccc(CN2CCn3cc(CNC(=O)C4CCC4)nc3C2)cc1.O=C(O)C(F)(F)F
percent effect: -9.191

compound: O=S(=O)(C1CC1)N1CCC2(CC1)COC(COc1ccccn1)C2 (stereo unspecified)
percent effect: -11.82

compound: Cc1nc(CN2Cc3nccn3CC(COCC3CC3)C2)cs1.O=C(O)C(F)(F)F (stereo unspecified)
percent effect: -36.93

The first 4 entries again:

| compound | percent effect |
|---|---|
| `CCCc1nn(C2CCN(C(C)C)C2=O)c(=O)o1` (stereo unspecified) | -35.73 |
| `Cc1ccc(C#N)c(N2CC(C)(C)[C@@](C)(O)C2)n1` | -9.969 |
| `O=S(=O)(Cc1cccc(F)c1)NCC(O)Cc1ccccc1` (stereo unspecified) | 8.506 |
| `N#Cc1nc(COc2ccc3c(c2)OCO3)oc1NC1CCCCC1` | -26.43 |